# Screening data

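Genome-wide siRNA knockdown in TC32 Ewing sarcoma cells, comparing luciferase light from an NR0B1-promoter reporter with a CMV-promoter reporter 48 hours after transfection.
Each siRNA was applied at 20 nM.
A z-score of the log NR0B1-over-CMV signal, less the median of siRNAs with the same seed; more negative means a stronger specific loss of the NR0B1 reporter.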

The strongest results of the screen are mostly left out here.
Sequences are the guide (antisense) strand, without overhang.

| siRNA | gene | seed-corrected z-score |
|---|---|---|
| `UUCUAGAUAAGUGCUUAGA` | COMMD3 | 0.3221 |
| `AAUAGCUCAGGAGAAGUGC` | TIGD3 | 2.004 |
| `UCAGAGAUCUCUUGUUUGG` | KRT75 | 0.2676 |
| `UAGGGUUCUUGAUUCGAAC` | NT5C3A | 0.4058 |
| `UUGCUAGCAAAGUAAAGUC` | MMS22L | -0.7306 |
| `UCAGAAAACAGCACGUUUC` | LOC641737 | -0.2082 |
| `UCAUAGUCUAAUAGAAUGC` | FSD2 | 0.6312 |
| `UAUCGGUUAAGAUAUUGAC` | SPTA1 | 0.746 |
| `AGUGGUACUGUCCAGAUUC` | CSRP1 | -0.01568 |
| `UCAGUCACAAUGAGAGUGG` | DDX54 | 0.4564 |
| `UGAAGGCACAGUAUAUCUG` | APEX1 | -0.02797 |
| `UUUUGUUCCGACACCACCA` | NIPBL-AS1 | 2.189 |
| `AAUCUGACAAUCUCGUUCC` | POLR2B | -1.915 |
| `UUGCUGAUAUCGAUUUUGG` | RPL6 | -0.8085 |
| `UAAGUUCUCAGUGUCUGCC` | GRPEL1 | -0.4668 |
| `UAACUGAUUCUACUAAAGG` | ZNF791 | -0.369 |
| `AACCGGACUAAUGUCUAUC` | MRE11A | -0.01158 |
| `AAUAUGAUCUCUUAUCUCC` | OXNAD1 | 0.5255 |
| `UAUGUAGAACCCGCACCUC` | EFNA1 | 0.8123 |
| `UUUGCUGAGUCGGAUAGCC` | TLDC2 | -0.2328 |
| `AAGAGUUUGCUGUAAGACC` | TOMM20 | 1.304 |
| `UAUAGUACCAGUCCUUGUC` | EFNB2 | 0.1959 |
| `UUAGGUACAGGCAUAGCUC` | TUBGCP2 | -0.5007 |
| `UACAGUAAUAAAUCUUAGU` | DDX11 | 1.055 |
| `UCUACCACGUGCGUAUUGC` | VMO1 | -0.3764 |
| `GACUUCCUAAAGGAUUUGC` | LOC732272 | 0.8039 |
| `UAUUUGUACAAAUCAACCU` | CSTF3-AS1 | -0.3698 |
| `AUCGUUUUAGGGCUUUUAC` | ARHGEF6 | -0.4059 |
| `UUCUCGUACAACAAUCUUC` | HECTD4 | 0.6492 |
| `UCUUGUAGCAUGAUCAGCG` | MAML3 | 0.8078 |
| `UUCUUGAGAUGUGUGAUGG` | ACTL10 | -0.1246 |
| `UGUUUGAUUCUAAUAAUCC` | HMGB1 | -0.3179 |
| `UUCGCGUAGGGAAACAGGC` | LOC728573 | 0.5838 |
| `AAGGUUUCAAUGUCGAUGG` | PITPNM2 | -1.087 |
| `UGCGUUAGAAGAUUUUGCG` | POU2F1 | -0.03644 |
| `UCAGUUUCUGAUGACGAUG` | MKX | -0.6866 |
| `UUCCUAAUAACAUUUAGAC` | HNRNPLL | 0.4343 |
| `UUCUCUACUAGGUUCUUUG` | GOLPH3L | -0.4813 |
| `UAUGGAUAGGUGAUCCUGC` | NFAM1 | 0.08596 |
| `UGCUGUGCAAAAUUUUCUC` | SLC25A23 | 0.979 |
| `AUAAGGAUCAGGAAUAGUC` | AGBL2 | 0.04363 |
| `UUGUUCAAUAUAGCAAUGU` | HLA-DPA1 | 0.2095 |
| `UUACGUGGUACACUGGAUG` | COL5A2 | 0.2503 |
| `UCAUGGUCCAGUUUCAUGA` | GDAP1L1 | -0.2886 |
| `UGUUGAAAUCUGCAAAUUC` | KDM4E | 1.296 |
| `UGAGUGUUUAAAGUGGAAC` | FEZF1 | 0.03641 |
| `UUCCCAGUAAAACAUGUGC` | RPL39L | 0.2285 |
| `UUUGUAGGCAUCGAGGAGG` | DIO2 | 0.02144 |
| `GAUAUCAUGUUAAUCUUCU` | SSX3 | 0.02917 |
| `UGCAGUAAUACACUCCAUG` | ILDR1 | -0.2543 |
| `AAUGUCGAAAAGACCCGGC` | PAQR9 | -1.591 |
| `UCAUCUAGACUGUAGUAUC` | CPPED1 | 0.3398 |
| `UCUUUUUCCAAAUACUCUG` | MNX1 | -0.2141 |
| `UCAUAAGUAACCCAUAUGC` | AIM1 | 0.4622 |
| `UCAAUGUUAAACUCUUCCU` | ATP6V1E2 | 0.3846 |
| `UAAGGUUUUUGUACGUCAC` | ARL1 | -0.05581 |
| `UUUGAGUCCAUCGAAGUAC` | RDH13 | 0.009676 |
| `UUUGAAUUCACUUCUCCCU` | DEFB124 | 0.3479 |
| `UUGUCGACACGCUCCUUCU` | RNF224 | 0.7506 |
| `UCACUAUACAAGAUGCAGC` | BTG3 | 1.613 |

Repeated from the top, 3 entries:

{"sirna": "UUCUAGAUAAGUGCUUAGA", "gene": "COMMD3", "seed-corrected z-score": "0.3221"}
{"sirna": "AAUAGCUCAGGAGAAGUGC", "gene": "TIGD3", "seed-corrected z-score": "2.004"}
{"sirna": "UCAGAGAUCUCUUGUUUGG", "gene": "KRT75", "seed-corrected z-score": "0.2676"}

The results are deposited in PubChem (AID1159506; NCATS, 2015).